Results from one PubChem assay

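Genome-wide siRNA knockdown in TC32 Ewing sarcoma cells, comparing luciferase light from an NR0B1-promoter reporter with a CMV-promoter reporter 48 hours after transfection. Each siRNA was applied at 20 nM. A z-score of the log NR0B1-over-CMV signal, less the median of siRNAs with the same seed; more negative means a stronger specific loss of the NR0B1 reporter.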

This is part of the screen; most of the strongest results are not listed here. Sequences are the guide (antisense) strand, without overhang.

| Sequence | target gene | seed-corrected z-score |
|---|---|---|
| `UGAUCUACUCCAAGGAUUU` | LINC00869 | 1.276 |
| `UAUUCUCUGCUCAUAGUUC` | TANK | -0.163 |
| `UUCUUCUUCACACCUUCCU` | SNX15 | 0.708 |
| `UCUGUAAUGAUACCCUUCC` | TPBG | -0.6482 |
| `UUGAUGAGAAAGGUAGUCC` | B3GLCT | -0.1446 |
| `AACGGUGUGAUUCCUAGUG` | TINAG | 1.879 |
| `UCAGGGUCAGGUGAGAAUG` | OR10V1 | 0.507 |
| `AUUAGAAACGGCAAAGAGC` | SLC29A2 | 0.9264 |
| `UACCAUAAAAUUUAGGAUG` | GLIPR1L2 | -0.3938 |
| `UUUCAUAGUAUGGUAAGCC` | RHOBTB1 | -0.5336 |
| `UUUCAUGCCCAGAAUACCC` | NANS | -0.5319 |
| `UCGGCAUUCACUGUACUGC` | AKAP8 | 0.01369 |
| `UCGUUUGCAACCACAGAUC` | TRMT1 | -0.2834 |
| `UGAAUGAUCCGAACUAUUC` | TMEM71 | -0.3173 |
| `UUUUCCACAUCAUAACCUC` | HBEGF | 0.6607 |
| `UCUUGAAUGAGUGGAACUG` | GPT | -0.03786 |
| `UACUAUGCAAUUUCCGAUC` | BTBD10 | 0.2787 |
| `UUCUAGUCAAGCGACCGCC` | ZNF469 | -0.6981 |
| `UUACUUCUCGUAGUUUGCG` | FBXO28 | 0.1568 |
| `UAUGAUUGAUUGAAGAUUC` | ABI2 | 0.2996 |
| `UAACUCAUCUUUAAGAGCG` | SYK | -0.3806 |
| `UCCAUGUUGAUAUCUUAGC` | UVRAG | -0.3504 |
| `UCACUCGUCAUGAUGUCGC` | INPP5D | -0.3301 |
| `UUCGGAUAUUUUCUCAGCC` | PDE8A | 0.7479 |
| `UGAGUUAAGAUCUUUGUCC` | PACS1 | 0.204 |
| `UCUGUUUGACUGGUUAUUG` | UTP4 | -1.489 |
| `AAUUAUAUAACAUCCGUGC` | ASB7 | -0.3458 |
| `UGAUAGAUACUUGUCCUCC` | ANKRD49 | -0.1277 |
| `UGAGUCACACUCGUGGAUG` | CBARP | -0.5769 |
| `UUUUAUAUCACAUUCGUUC` | LOC442064 | -0.5061 |
| `UCUGCGAUAACUGCGAUUC` | CANT1 | 0.2205 |
| `UUACGGUGCAGGACGUAGC` | MASP2 | -0.3265 |
| `UUUUUGCCCAGGUCGUUGG` | MCAM | -0.495 |
| `UCUGGGAUUGGACAGCAGC` | GRN | -0.9888 |
| `AAAGAUCUCCUCAAUCUUC` | CKM | -0.4053 |
| `UAACUGGUUCGGGACCGCU` | HOXC5 | 0.4919 |
| `AAUAGGUUCCUGUGAAGCC` | NOTCH3 | -1.211 |
| `UAUGCUCUGUGAAUAUCGG` | SPATA16 | 0.5556 |
| `UUCUGUAAUCCUAUAACCC` | TRIM22 | -0.8759 |
| `ACAGUGUAUAGAAAGUUGG` | FBXL20 | 0.2247 |
| `AAGACUAUAGAUUAAAGGG` | OR2T29 | -0.06298 |
| `AGACUAACUGGAGUUGAAG` | SP3 | 0.9042 |

The last 5 entries again:

{"sequence": "UAUGCUCUGUGAAUAUCGG", "target gene": "SPATA16", "seed-corrected z-score": "0.5556"}
{"sequence": "UUCUGUAAUCCUAUAACCC", "target gene": "TRIM22", "seed-corrected z-score": "-0.8759"}
{"sequence": "ACAGUGUAUAGAAAGUUGG", "target gene": "FBXL20", "seed-corrected z-score": "0.2247"}
{"sequence": "AAGACUAUAGAUUAAAGGG", "target gene": "OR2T29", "seed-corrected z-score": "-0.06298"}
{"sequence": "AGACUAACUGGAGUUGAAG", "target gene": "SP3", "seed-corrected z-score": "0.9042"}

From PubChem BioAssay record AID1159506 (NCATS, 2015).